The experiment is described as follows: qHTS Assay for Lipid Storage Modulators in Drosophila S3 Cells.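 On cell number change: cells counted by Cell Tracker Red CMTPX staining in the red channel.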 Conditions: BODIPY lipid droplet fluorescence, 18-24 h; for cell number change: measured here: cell count max response, cells fed with added oleic acid. Summed up: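 Laser-scanning cytometry quantifies lipid droplet accumulation (500–530 nm total intensity; droplet/cell object ratio) in oleic acid-fed (400 uM added) Drosophila S3 cells treated with a concentration series. 20 uM Triacsin C defined 100% inhibition.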
Background: qHTS replaces the single test concentration by a dilution series.

Setting [1] is: measured here: lipid fluorescence (Fed channel) AC50, cells fed with added oleic acid.
[2] abbreviates: measured here: cell number channel AC50, cells fed with added oleic acid.

The list shows a part of the results. The main result of the screen is listed elsewhere. These columns were measured beside it and carry no call. The list favours compounds with an active or inconclusive main result. Potencies come from curve fits of mixed quality, noted in brackets.

Usually AC50 stands for the midpoint of the concentration-response curve, whichever way the signal moves. High values mean activity only at high concentration, low ones activity at low concentration. As to `COc1ccc(-c2ccc(=O)n(CC(=O)NC3CCc4ccccc43)n2)cc1OC` (stereo unspecified), the cell number change came to 3.73%. Further, the AC50 under setting [1] is 0.92 µM [rising, full curve, poor fit].

In the case of `Cc1cc(C)nc(NS(=O)(=O)c2ccc(N/C=C\C(=O)c3cccs3)cc2)n1`, the cell number change amounted to 139%. In addition, the AC50 under setting [2] is 29.1 µM [rising, single point]. The AC50 under setting [1] was 29.1 µM [rising, single point].

On to `O=C(O)C1C2CCC(C2)C1C(=O)NCCc1cccc(Cl)c1` (stereo unspecified), for which the cell number change stood at 1.38%.

`CCOc1ccccc1CNC(=O)C1CCC(=O)N1C(C)C` (stereo unspecified): the cell number change is -14.2%. In addition, under setting [1], the half-maximal activity concentration (AC50) is 1.46 µM [falling, full curve, poor fit].

For `Cc1c(NS(=O)(=O)c2ccc(NC(=O)CCC(=O)O)cc2)c(=O)n(-c2ccccc2)n1C`, the cell number change was -25.1%. The AC50 under setting [1] is 0.461 µM [falling, full curve].

As to `CCO/N=C(/C)c1c(O)cc(C(C)(C)C)n(-c2ccccc2)c1=O`, the cell number change was -12.5%. The AC50 under setting [2] is 0.517 µM [rising, single point]. In addition, the AC50 under setting [1] was 29.1 µM [falling, single point].

`CNC(=O)c1ccccc1NC(=O)c1cccc(S(=O)(=O)N2CCC(C)CC2)c1`: the cell number change was -13.7%. The AC50 under setting [1] was 0.0411 µM [rising, full curve, poor fit].

For `COc1ccc(-n2c(N)c(C(=O)NCc3ccco3)c3nc4ccccc4nc32)cc1OC`, the cell number change is -41.2%. The AC50 under setting [2] is 29.1 µM [falling, single point]. In addition, the AC50 under setting [1] was 18.4 µM [falling, single point].

With `C/C(=N/Nc1ccccc1[N+](=O)[O-])c1ccc(C)c([N+](=O)[O-])c1`, the cell number change was -36.1%. For the same molecule, under setting [2], the concentration at half-maximal activity (AC50) was 18.4 µM [falling, partial curve, poor fit]. Moreover, the AC50 under setting [1] was 29.1 µM [falling, single point].

For `O=C(O)CNS(=O)(=O)c1ccc2c(c1)CCCC2`, the cell number change is -0.683%.

As for `O=C(CSc1nncs1)Nc1nccs1`, the cell number change stood at 21%. Further, under setting [1], the AC50 is 32.6 µM [falling, single point].

For the molecule `CCOc1ccc(NC(=S)N(CCOC)C2CCN(C(C)C)CC2)cc1`, the cell number change was -14.9%. For the same molecule, the concentration at half-maximal activity (AC50) under setting [2] is 6.51 µM [falling, single point]. Further, the AC50 under setting [1] is 0.116 µM [falling, full curve, poor fit].

Turning to `CCCCSCc1[nH]c(=O)[nH]c1C(=O)CCCCC(=O)OCC`, the cell number change was determined as 39.2%. In addition, the AC50 under setting [2] was 5.8 µM [rising, partial curve].

As to `COc1cc(Cl)cc(/C=C/c2ccc3ccccc3n2)c1OC(C)=O`, the cell number change worked out at 54.7%. The AC50 under setting [2] was 1.3 µM [rising, full curve]. Besides, under setting [1], the AC50 is 4.61 µM [rising, partial curve].

Take `C/C(=N\O)C(=O)NCCCNCCCN(C)C`: the cell number change was -36.3%. Moreover, the AC50 under setting [2] was 0.366 µM [falling, full curve, poor fit]. Moreover, the concentration at half-maximal activity (AC50) under setting [1] was 16.4 µM [falling, single point].

With `CC(C)(C)n1ncc2c(=O)n(Cc3ccc(Cl)cc3)cnc21`, the AC50 under setting [1] was 0.103 µM [rising, full curve, poor fit].

With `CC(NC(=O)CN1C(=O)NC(Cc2ccccc2)(Cc2ccccc2)C1=O)C12CC3CC(CC(C3)C1)C2` (stereo unspecified), the cell number change came out at 5.94%. Besides, the AC50 under setting [1] is 1.3 µM [falling, full curve, poor fit].

On to `COc1ccc(C2CC(c3c(-c4ccccc4)c4cc(Cl)ccc4[nH]c3=O)=NN2S(C)(=O)=O)cc1OC` (stereo unspecified), for which the cell number change is -81.9%. Besides, the AC50 under setting [2] is 1.84 µM [rising, partial curve]. The AC50 under setting [1] is 5.8 µM [rising, single point].

With `COc1ccc2oc(C(=O)OCC(=O)NC3CCCCC3)c(C)c2c1`, the cell number change was 11.4%.

Turning to `COc1ccc(S(=O)(=O)NCC2CCC(C(=O)NCCC(C)C)CC2)cc1` (stereo unspecified), the cell number change was 25.9%. The AC50 under setting [1] was 20.6 µM [rising, single point].

On to `COc1cc(/C=N\NC(=O)c2ccccc2F)ccc1Oc1ccc([N+](=O)[O-])cn1`, for which the cell number change came to 16.4%. Besides, the AC50 under setting [1] was 6.51 µM [rising, single point].

Consider `COC(=O)C1=C(C)NC(=S)NC1c1ccc(-c2cccc(Cl)c2)o1` (stereo unspecified), for which the cell number change was 19%. Also, the AC50 under setting [2] is 0.00411 µM [rising, partial curve, poor fit]. In addition, the AC50 under setting [1] is 29.1 µM [falling, single point].

`CC(Oc1ccc(F)cc1)C(=O)Nc1cc(Cl)ccc1-n1cncn1` (stereo unspecified): the cell number change was determined as 34%. Also, the AC50 under setting [2] was 5.8 µM [rising, partial curve]. Also, under setting [1], the AC50 was 18.4 µM [rising, single point].

On to `CC1(C)CC(=O)C2=C(C1)N(c1ccccc1C#N)C(N)=C(C#N)C2c1cccs1` (stereo unspecified), for which the cell number change turned out to be 18.8%. The AC50 under setting [2] was 0.651 µM [rising, partial curve, poor fit]. Further, under setting [1], the AC50 was 2.91 µM [rising, full curve].

On to `Cc1cccc(NC(=O)CSc2ncnc3nc[nH]c23)c1C`, for which, under setting [1], the AC50 was 25.9 µM [rising, partial curve, poor fit].

`CCCC(O)(CCN(C)C)c1ccc(OC)cc1` (stereo unspecified): the cell number change was -30.9%. Besides, under setting [2], the AC50 was 0.0164 µM [falling, full curve, poor fit]. Besides, the AC50 under setting [1] was 6.51 µM [falling, partial curve].

With `Cc1ccc(CN2CCC(C(=O)Nc3cccc(-c4cccc(F)c4)c3)CC2)o1`, the AC50 under setting [1] is 1.16 µM [rising, full curve].

Regarding `Cc1ccc(S(=O)(=O)NC(C)CCc2ccccc2)cc1C(N)=O` (stereo unspecified), under setting [1], the AC50 is 1.16 µM [falling, partial curve, poor fit].

Take `CCOC(=O)CCC(NC(=O)c1ccc(NCN2C(=O)CCC2=O)cc1)C(=O)OCC` (stereo unspecified): the cell number change is -17.5%. The AC50 under setting [1] was 0.58 µM [falling, single point].

On to `Cc1cc(NS(=O)(=O)c2ccc(NC(=O)c3cc4c(=O)n5ccccc5nc4s3)cc2)nc(C)n1`, for which the cell number change is -23.3%. Also, the AC50 under setting [1] was 0.326 µM [falling, partial curve, poor fit].

For `COc1cccc(/C=N/NC(=O)c2cc(-c3cccn3C)n[nH]2)c1O`, the cell number change is -30.2%. Also, under setting [2], the AC50 was 4.11 µM [falling, partial curve]. For the same molecule, under setting [1], the AC50 is 14.6 µM [falling, partial curve].

For `COc1ccccc1N1CCN(C(C)C(=O)Nc2ccc(S(=O)(=O)N3CCOCC3)cc2)CC1` (stereo unspecified), the cell number change is 42.8%. The AC50 under setting [2] was 3.66 µM [rising, full curve].

As for `Cn1c(C(=O)NCc2cccnc2)cc2sc(Cl)cc21`, the cell number change is -3.09%. In addition, the AC50 under setting [1] is 0.58 µM [rising, partial curve].

As for `CCN(CC)c1nc(Nc2ccccc2)nc(Oc2ccc(=O)[nH]n2)n1`, the AC50 under setting [1] is 0.259 µM [rising, partial curve, poor fit].

`CCN(CC)CCNC(=O)c1cn(CC)c2ccc(S(=O)(=O)N3CCOCC3)cc2c1=O`: under setting [1], the half-maximal activity concentration (AC50) is 29.1 µM [rising, single point].

On to `O=C(Nc1ccc(O)cc1C(=O)O)c1ccc(NC(=O)c2ccco2)cc1`, for which the cell number change worked out at 9.17%.

As to `CCN1CCN(C(=O)c2cc3c(=O)oc4ccc(C)cc4c3s2)CC1`, the cell number change was 7.42%. The AC50 under setting [1] is 6.51 µM [rising, single point].

Take `COCCn1c(SCC(=O)NC(C)c2ccccc2)nc2ccccc21` (stereo unspecified): the cell number change amounted to 6.41%. Further, the AC50 under setting [1] is 6.51 µM [rising, single point].

On to `O=C(/C=C/c1ccc2c(c1)OCO2)NCc1cn2cc(Cl)ccc2n1`, for which the AC50 under setting [1] is 6.51 µM [falling, single point].

As for `Cc1ccc(CCNS(=O)(=O)c2ccc3c(c2)N(C)CCO3)cc1`, the cell number change came out at 62%. Under setting [2], the AC50 was 29.1 µM [rising, single point]. In addition, under setting [1], the half-maximal activity concentration (AC50) was 29.1 µM [rising, single point].

Consider `CCOC(=O)N1CCN(C(=O)COc2ccc3ccccc3c2Br)CC1`, for which the cell number change was 10.1%. Further, the AC50 under setting [1] was 6.51 µM [rising, partial curve, poor fit].

Consider `C#Cc1ccc([C@@H]2C=C(C(=O)NCc3nc4ccccc4[nH]3)O[C@H](OCC)[C@H]2CCCO)cc1`, for which the cell number change amounted to 25.9%. Besides, under setting [1], the AC50 was 2.06 µM [rising, partial curve].

In the case of `CC(NC(=O)CSc1n[nH]c(N)n1)c1ccccc1` (stereo unspecified), the cell number change came to 26.7%. The AC50 under setting [2] was 1.03 µM [rising, full curve, poor fit].

Regarding `CCOC(=O)c1sc2ccc(S(=O)(=O)N3CCCCC3)cc2c1N`, the cell number change was -1.82%. For the same molecule, the AC50 under setting [1] was 2.59 µM [rising, partial curve].

Turning to `COc1ccc(NC(=O)N2CCN(c3ccc([N+](=O)[O-])cc3)CC2)cc1OC`, the cell number change turned out to be 16.4%. The AC50 under setting [2] is 2.31 µM [rising, partial curve]. The concentration at half-maximal activity (AC50) under setting [1] is 0.731 µM [rising, partial curve].

On to `COC(=O)[C@]1(C)CCC[C@@]2(C)C3CC[C@@]4(C)C[C@]3(CCC21)CC(=O)N4` (stereo partly specified), for which the cell number change is -5.99%. Moreover, the AC50 under setting [1] was 0.146 µM [rising, full curve].

With `CCOC(=O)N1CCC(NC(=O)C(NC(=O)C2CCC(C)CC2)C(C)CC)CC1` (stereo unspecified), the cell number change was -58.9%. The AC50 under setting [2] was 25.9 µM [falling, single point]. The AC50 under setting [1] is 1.03 µM [falling, full curve, poor fit].

On to `N=c1c(C(=O)NCC2CCCO2)cc2c(=O)n3ccccc3nc2n1Cc1ccco1` (stereo unspecified), for which the cell number change was -22.2%. Under setting [1], the AC50 is 6.51 µM [falling, single point].

For `CCn1c2ccccc2c2cc(N=C3SC(CC(=O)Nc4ccccc4OC)C(=O)N3CCOC)ccc21` (stereo unspecified), the cell number change was 15.7%.

Take `Nc1cc(S(=O)(=O)Nc2cc(Cl)ccc2Cl)ccc1N1CCOCC1`: the cell number change came to 14.7%.

Take `Cc1cccc(NC(=O)c2ccccc2OCC(=O)c2ccc(F)cc2)c1`: the cell number change was found to be 8.89%. The concentration at half-maximal activity (AC50) under setting [2] is 0.651 µM [falling, single point]. Besides, the AC50 under setting [1] is 29.1 µM [falling, single point].

On to `CS(=O)(=O)N(CC(=O)NCC1CCCO1)c1ccc(F)c(Cl)c1` (stereo unspecified), for which, under setting [1], the AC50 is 0.82 µM [falling, full curve, poor fit].

Turning to `N#CC1(Cc2ccc([N+](=O)[O-])cc2)c2ccccc2C=CN1C(=O)c1ccccc1` (stereo unspecified), the cell number change was 36.9%. Moreover, under setting [2], the half-maximal activity concentration (AC50) was 14.6 µM [rising, partial curve]. Moreover, under setting [1], the AC50 is 18.4 µM [rising, single point].

For the molecule `Cc1cccc(CN2C(=O)c3ccccc3S(=O)(=O)c3ccc(C(=O)NCCCN4CCCC4)cc32)c1`, the AC50 under setting [1] was 29.1 µM [rising, single point].
